Test results: the supplement of paper PMC10849652
Some of the results follow.

By UniProt entry, the sequences of proteins in these tests, tags left out. Where a name states a change or a piece, a line headed by the entry shows the natural chain unless it says otherwise.
UniProt Q07108: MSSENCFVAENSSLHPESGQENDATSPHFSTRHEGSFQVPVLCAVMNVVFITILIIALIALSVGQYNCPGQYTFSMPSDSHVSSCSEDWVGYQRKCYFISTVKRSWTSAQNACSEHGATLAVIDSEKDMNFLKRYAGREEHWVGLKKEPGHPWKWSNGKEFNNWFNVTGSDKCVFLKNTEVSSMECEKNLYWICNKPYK
UniProt O96020, whole entry, looked up: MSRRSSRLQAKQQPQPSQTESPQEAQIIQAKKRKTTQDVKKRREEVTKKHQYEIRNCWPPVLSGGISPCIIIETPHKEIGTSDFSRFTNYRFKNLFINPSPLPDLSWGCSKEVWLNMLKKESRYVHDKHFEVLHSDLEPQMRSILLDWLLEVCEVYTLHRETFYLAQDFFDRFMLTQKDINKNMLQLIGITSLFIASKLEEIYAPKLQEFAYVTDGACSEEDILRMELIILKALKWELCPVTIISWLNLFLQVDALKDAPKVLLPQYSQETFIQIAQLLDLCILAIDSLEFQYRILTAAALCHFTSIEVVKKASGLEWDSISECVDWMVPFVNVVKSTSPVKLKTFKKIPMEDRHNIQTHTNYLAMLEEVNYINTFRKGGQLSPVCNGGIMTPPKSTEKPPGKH
UniProt Q8N9Z2: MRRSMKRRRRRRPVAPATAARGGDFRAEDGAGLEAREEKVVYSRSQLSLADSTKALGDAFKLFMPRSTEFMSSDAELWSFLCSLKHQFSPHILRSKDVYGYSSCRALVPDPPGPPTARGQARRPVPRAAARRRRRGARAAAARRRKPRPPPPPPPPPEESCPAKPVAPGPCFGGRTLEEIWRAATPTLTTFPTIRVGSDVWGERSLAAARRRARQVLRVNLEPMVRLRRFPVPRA
UniProt P24385, whole entry, looked up: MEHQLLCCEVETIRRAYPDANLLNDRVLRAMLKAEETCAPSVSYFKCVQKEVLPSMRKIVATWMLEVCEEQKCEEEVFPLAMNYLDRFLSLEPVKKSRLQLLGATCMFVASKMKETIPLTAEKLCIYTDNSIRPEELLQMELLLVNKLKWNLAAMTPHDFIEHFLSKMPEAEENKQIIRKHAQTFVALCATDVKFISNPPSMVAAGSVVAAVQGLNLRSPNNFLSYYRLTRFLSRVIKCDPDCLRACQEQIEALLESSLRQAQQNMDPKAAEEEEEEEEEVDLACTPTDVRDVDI
UniProt P34810: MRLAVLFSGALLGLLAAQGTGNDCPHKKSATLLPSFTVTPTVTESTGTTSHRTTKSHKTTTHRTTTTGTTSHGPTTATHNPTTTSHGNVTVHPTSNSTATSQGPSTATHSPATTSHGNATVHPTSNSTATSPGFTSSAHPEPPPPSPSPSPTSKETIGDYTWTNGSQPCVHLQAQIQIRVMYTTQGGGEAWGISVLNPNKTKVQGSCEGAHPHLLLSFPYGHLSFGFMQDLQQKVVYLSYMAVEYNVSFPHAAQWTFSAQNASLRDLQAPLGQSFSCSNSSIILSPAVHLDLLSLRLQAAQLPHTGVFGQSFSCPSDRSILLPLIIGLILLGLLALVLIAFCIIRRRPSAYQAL
UniProt P33681, whole entry, looked up: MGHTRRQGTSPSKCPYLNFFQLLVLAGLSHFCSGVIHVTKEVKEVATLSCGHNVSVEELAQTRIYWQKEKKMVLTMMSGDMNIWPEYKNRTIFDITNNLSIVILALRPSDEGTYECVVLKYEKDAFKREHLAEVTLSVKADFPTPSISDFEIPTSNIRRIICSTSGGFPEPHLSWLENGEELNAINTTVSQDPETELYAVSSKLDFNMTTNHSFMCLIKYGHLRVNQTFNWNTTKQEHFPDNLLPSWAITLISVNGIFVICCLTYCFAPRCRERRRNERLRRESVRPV
UniProt P11049: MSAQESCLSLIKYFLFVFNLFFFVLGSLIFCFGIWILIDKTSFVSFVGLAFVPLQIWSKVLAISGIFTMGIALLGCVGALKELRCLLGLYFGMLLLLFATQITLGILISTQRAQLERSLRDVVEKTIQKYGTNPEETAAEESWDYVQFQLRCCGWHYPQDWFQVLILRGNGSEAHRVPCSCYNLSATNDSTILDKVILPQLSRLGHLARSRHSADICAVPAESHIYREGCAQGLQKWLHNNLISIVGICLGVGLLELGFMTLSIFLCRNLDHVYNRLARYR
UniProt Q8TCZ2: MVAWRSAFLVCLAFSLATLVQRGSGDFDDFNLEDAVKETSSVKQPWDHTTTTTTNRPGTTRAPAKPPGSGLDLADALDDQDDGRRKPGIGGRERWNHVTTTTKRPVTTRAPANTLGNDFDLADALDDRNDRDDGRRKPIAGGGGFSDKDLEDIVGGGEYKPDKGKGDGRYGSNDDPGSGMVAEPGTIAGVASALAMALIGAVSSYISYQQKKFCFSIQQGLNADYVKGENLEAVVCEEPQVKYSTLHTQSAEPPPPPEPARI
UniProt P20138, whole entry, looked up: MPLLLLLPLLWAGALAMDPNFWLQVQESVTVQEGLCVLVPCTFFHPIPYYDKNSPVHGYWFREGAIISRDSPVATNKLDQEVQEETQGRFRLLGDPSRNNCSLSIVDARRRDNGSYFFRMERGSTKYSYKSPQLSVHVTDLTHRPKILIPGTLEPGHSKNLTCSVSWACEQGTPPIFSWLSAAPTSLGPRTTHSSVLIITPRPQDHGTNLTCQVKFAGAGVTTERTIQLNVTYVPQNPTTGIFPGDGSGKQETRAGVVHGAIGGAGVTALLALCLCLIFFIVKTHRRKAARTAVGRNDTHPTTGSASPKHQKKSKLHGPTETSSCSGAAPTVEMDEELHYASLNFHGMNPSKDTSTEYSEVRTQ
UniProt P55211: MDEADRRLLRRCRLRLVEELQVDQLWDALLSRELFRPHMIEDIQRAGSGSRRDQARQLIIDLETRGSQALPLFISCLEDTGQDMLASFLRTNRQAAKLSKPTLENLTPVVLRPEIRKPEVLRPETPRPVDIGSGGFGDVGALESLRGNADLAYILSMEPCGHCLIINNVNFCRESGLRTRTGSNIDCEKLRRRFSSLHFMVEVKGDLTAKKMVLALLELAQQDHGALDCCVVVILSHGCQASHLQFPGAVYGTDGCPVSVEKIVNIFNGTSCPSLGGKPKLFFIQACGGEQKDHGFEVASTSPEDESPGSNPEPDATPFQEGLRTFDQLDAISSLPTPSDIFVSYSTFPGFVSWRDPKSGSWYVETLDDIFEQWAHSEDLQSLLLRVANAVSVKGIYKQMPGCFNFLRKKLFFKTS
UniProt Q92526, whole entry, looked up: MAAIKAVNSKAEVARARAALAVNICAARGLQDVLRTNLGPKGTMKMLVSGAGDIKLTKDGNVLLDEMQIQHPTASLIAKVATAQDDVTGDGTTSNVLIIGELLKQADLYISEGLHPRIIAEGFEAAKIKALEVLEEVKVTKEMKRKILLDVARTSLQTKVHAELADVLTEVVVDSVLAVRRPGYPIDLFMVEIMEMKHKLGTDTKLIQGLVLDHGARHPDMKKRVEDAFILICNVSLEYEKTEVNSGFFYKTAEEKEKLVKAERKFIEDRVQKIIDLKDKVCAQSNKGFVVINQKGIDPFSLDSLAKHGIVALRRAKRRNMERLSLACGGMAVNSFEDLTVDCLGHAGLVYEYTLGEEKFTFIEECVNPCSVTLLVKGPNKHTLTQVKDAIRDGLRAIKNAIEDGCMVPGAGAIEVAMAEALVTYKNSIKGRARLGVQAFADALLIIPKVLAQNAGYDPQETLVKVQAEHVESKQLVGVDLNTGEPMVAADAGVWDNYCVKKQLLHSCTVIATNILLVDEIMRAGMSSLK
UniProt O43439: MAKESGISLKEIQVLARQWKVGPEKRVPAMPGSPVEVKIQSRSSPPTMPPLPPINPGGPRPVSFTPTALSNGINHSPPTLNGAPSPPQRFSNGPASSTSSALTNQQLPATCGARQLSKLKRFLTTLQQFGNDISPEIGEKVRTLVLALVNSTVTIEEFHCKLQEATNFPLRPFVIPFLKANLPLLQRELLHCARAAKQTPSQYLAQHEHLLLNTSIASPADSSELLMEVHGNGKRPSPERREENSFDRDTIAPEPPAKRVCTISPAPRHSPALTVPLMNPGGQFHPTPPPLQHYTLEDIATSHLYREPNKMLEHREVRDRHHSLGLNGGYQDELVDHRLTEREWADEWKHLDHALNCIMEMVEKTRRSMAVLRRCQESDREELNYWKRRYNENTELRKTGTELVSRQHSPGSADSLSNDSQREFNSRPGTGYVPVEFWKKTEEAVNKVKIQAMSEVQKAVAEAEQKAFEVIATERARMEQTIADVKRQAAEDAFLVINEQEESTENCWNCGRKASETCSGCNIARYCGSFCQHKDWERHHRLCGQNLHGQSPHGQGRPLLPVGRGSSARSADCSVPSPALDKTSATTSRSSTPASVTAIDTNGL
UniProt P15529: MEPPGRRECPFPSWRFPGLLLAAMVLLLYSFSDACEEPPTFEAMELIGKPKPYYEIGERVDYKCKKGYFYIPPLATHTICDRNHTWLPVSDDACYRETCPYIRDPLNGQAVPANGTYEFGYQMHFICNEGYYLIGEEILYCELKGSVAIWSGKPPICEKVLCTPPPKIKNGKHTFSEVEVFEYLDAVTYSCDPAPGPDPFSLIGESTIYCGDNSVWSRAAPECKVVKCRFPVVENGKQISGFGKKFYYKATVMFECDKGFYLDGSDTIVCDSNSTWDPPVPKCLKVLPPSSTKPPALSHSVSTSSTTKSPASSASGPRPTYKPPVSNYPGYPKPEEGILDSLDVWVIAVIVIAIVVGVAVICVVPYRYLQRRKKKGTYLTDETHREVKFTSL
UniProt P16070: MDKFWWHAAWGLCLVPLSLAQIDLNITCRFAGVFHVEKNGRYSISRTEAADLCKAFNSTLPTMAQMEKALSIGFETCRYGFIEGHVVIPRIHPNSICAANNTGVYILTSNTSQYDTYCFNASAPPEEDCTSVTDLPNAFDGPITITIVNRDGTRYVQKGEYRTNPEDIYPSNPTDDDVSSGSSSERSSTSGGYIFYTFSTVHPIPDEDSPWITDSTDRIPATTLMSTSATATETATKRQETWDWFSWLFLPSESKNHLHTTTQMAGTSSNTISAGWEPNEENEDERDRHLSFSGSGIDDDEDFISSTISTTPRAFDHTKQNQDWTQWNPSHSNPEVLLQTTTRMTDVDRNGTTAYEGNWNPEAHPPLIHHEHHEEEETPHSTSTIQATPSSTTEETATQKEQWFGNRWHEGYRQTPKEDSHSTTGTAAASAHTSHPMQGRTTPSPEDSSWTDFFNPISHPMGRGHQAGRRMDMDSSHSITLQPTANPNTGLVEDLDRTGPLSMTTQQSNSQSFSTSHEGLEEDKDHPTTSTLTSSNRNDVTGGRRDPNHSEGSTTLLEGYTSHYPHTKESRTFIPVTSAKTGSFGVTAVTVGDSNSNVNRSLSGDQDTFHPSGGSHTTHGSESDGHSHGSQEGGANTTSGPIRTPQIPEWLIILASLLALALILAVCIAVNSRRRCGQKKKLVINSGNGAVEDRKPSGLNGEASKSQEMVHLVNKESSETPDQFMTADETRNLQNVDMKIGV
UniProt Q9P0B6: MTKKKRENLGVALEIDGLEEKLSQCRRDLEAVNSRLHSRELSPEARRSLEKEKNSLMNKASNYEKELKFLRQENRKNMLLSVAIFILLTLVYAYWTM
UniProt Q2TAC2: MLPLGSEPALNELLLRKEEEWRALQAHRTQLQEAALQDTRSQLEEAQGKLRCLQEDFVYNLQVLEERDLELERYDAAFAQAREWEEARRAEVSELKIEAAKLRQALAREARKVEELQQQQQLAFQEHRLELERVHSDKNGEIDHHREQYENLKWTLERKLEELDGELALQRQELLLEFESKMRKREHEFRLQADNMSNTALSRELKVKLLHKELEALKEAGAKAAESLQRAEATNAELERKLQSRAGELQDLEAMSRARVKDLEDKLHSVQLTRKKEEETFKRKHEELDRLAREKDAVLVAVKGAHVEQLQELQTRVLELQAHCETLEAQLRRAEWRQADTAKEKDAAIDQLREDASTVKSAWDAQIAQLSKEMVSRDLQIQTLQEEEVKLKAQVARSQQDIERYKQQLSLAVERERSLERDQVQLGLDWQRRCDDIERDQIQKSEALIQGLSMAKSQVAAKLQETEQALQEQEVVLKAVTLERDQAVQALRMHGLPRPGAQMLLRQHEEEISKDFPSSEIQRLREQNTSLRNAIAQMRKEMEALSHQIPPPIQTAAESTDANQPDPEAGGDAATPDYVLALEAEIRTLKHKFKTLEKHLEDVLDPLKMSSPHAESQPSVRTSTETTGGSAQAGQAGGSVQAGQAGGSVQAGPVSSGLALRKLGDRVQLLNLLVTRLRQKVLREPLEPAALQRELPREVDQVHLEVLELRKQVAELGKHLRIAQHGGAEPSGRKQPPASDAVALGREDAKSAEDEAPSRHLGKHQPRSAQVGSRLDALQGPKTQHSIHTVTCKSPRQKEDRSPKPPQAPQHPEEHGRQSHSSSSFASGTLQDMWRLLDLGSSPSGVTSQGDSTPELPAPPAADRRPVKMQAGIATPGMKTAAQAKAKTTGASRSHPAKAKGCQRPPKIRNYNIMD

Columns and labels:
Assay in all cases: log2 fold change, soluble protein after heating vs DMSO (PISA); higher = thermal stabilisation; K562 cells, 10 uM, 30 min; active = over 0.2 and 3.5 SD of the protein, either way, in both replicates (recomputed)
[1] = compound: C1=CC(=C(C=C1Cl)C2=NC3=NC=CN=C3C(=N2)NC4=CC=NC=C4)F
Method in brief: (§1)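 Quantification of soluble protein used TMTpro 16plex LC-MS/MS, with channel sums equalised. Samples were the supernatant after 21,000xg for 90 min of pooled aliquots from K562 cells (2×10^6 cells/mL) treated with 10 μM compound for 30 min, heated for 3 min over 48°C-58°C, and extracted in PBS with 0.5% NP-40 at 4°C. Values, from duplicates, describe thermal stability against control samples on a log2 fold-change scale.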

[2] = compound: C1=CC2=NC=CN=C2C=C1/C=C/3\C(=O)NC(=O)S3
Method in brief: as §1

[3] = compound: C/C(=N\NC(=O)C1=CC(=CC=C1)S(=O)(=O)N2CCOCC2)/C3=C(C=CC(=C3)Cl)O
Method in brief: as §1

[4] = compound: C1=CC2=C(C=CC(=C2)/C=C\3/C(=O)NC(=NCC4=CC=CS4)S3)N=C1
Method in brief: as §1

[5] = compound: C1=CC=C(C=C1)C2=NC(=C(N2)C3=CC=NC=C3)C4=CC(=C(C=C4)Cl)O
Method in brief: as §1

[6] = compound: C1=CC=C2C(=C1)C3=NNC4=CC=CC(=C43)C2=O
Method in brief: as §1

erlotinib = compound: C#Cc1cccc(Nc2ncnc3cc(OCCOC)c(OCCOC)cc23)c1 [erlotinib]
Method in brief: as §1

[7] = compound: C1=CC(=CC=C1C2=NC3=C(N2)C=C(C=C3)C(=O)N)OC4=CC=C(C=C4)Cl
Method in brief: as §1

[8] = compound: C1CCN(C1)C(=O)NC2=CC=CC(=C2)NC3=NC=C(C(=N3)NCCC4=CN=CN4)Br
Method in brief: as §1

[9] = compound: C1CN(CCC1(CC2=CC=C(C=C2)Cl)N)C3=NC=NC4=C3C=CN4
Method in brief: as §1

Measured: log2 fold change

CDC37 (UniProt K7EKQ2)
inactive: [1] 0.227 | [2] -0.18

CCDC187, A0A1W2PQX5
inactive: [3] -0.124 | [1] -0.079 | [4] 0.169 | [5] -0.055 | [6] 0.013

CD69 (UniProt Q07108)
inactive: [1] 0.05 | [2] 0.085

CASP7 isoform 3 (UniProt P55210)
inactive: erlotinib 0.133 | [1] -0.105 | [7] 0.217 | [2] 0.118

CASK (UniProt O14936)
inactive: erlotinib -0.018 | [3] -0.07 | [7] 0.01 | [4] 0.038 | [6] -0.136

CCNE2 (UniProt O96020)
inactive: erlotinib -0.145 | [7] 0.068

CBX8 (UniProt Q9HC52)
inactive: [5] -0.066

CASP10 isoform 4 (UniProt Q92851)
inactive: [3] 0.138 | [1] 0.026 | [4] 0.124 | [2] -0.046 | [5] 0.051 | [6] -0.04 | [8] -0.13 | [9] -0.21

CCNL1 (UniProt Q9UK58)
inactive: erlotinib -0.001 | [7] 0.094

CCDC71L isoform 2 (UniProt Q8N9Z2)
inactive: erlotinib 0.261 | [1] 0.05 | [7] -0.028 | [2] 0.027 | [8] 0.293 | [9] -0.023

CBX3 (UniProt B8ZZ43)
inactive: [2] 0.478

CCND1 (UniProt P24385)
inactive: [5] -0.06

CD68 (UniProt P34810)
inactive: erlotinib -0.13 | [7] 0.022 | [2] 0.094

CD80 (UniProt P33681)
inactive: erlotinib 0.11 | [3] -0.062 | [7] 0.001 | [4] -0.121 | [5] 0.035 | [6] -0.007 | [8] -0.095 | [9] 0.05

CCDC85C (UniProt A6NKD9)
inactive: [3] 0.22 | [1] 0.061 | [4] -0.015 | [2] 0.009 | [5] 0.006 | [6] 0.083 | [8] 0.041 | [9] 0.096

CD37 (UniProt P11049)
inactive: [3] -0.106 | [4] 0.008 | [6] 0.107 | [8] -0.083 | [9] 0.305

CCM2 isoform 2 (UniProt Q9BSQ5)
inactive: erlotinib 0.142 | [1] -0.042 | [7] 0.035 | [2] 0.083 | [5] 0.013 | [8] 0.09 | [9] 0.16

CD99L2 isoform 5 (UniProt Q8TCZ2)
inactive: erlotinib 0.089 | [1] -0.047 | [7] -0.039 | [2] -0.039 | [8] 0.054 | [9] -0.035

CD33 (UniProt P20138)
inactive: erlotinib 0.054 | [1] 0.175 | [7] -0.013 | [5] -0.08 | [8] -0.006 | [9] 0.094

CASP9 (UniProt P55211)
inactive: [3] 0.059 | [1] -0.016 | [4] -0.049 | [5] -0.02 | [6] 0.048 | [8] -0.054 | [9] -0.218

CD9 (UniProt P21926)
inactive: [3] -0.063 | [1] 0.099 | [4] 0.056 | [6] -0.303 | [8] -0.111 | [9] 0.085

CD82 (UniProt P27701)
inactive: erlotinib 0.104 | [1] 0.047 | [7] -0.019 | [2] -0.008 | [5] 0.059

CDC25C (UniProt P30307)
inactive: [3] 0.244 | [1] -0.275 | [4] -0.019 | [6] -0.111 | [8] -0.184 | [9] -0.224

CDC27 (UniProt G5EA36)
inactive: erlotinib -0.081 | [1] 0.111 | [7] -0.033 | [5] -0.073 | [8] -0.251 | [9] 0.064

Reprinted from the results shown (eight entries):
CD80 (UniProt P33681)
inactive: erlotinib 0.11 | [3] -0.062 | [7] 0.001 | [4] -0.121 | [5] 0.035 | [6] -0.007 | [8] -0.095 | [9] 0.05

CCDC85C (UniProt A6NKD9)
inactive: [3] 0.22 | [1] 0.061 | [4] -0.015 | [2] 0.009 | [5] 0.006 | [6] 0.083 | [8] 0.041 | [9] 0.096

CD37 (UniProt P11049)
inactive: [3] -0.106 | [4] 0.008 | [6] 0.107 | [8] -0.083 | [9] 0.305

CCM2 isoform 2 (UniProt Q9BSQ5)
inactive: erlotinib 0.142 | [1] -0.042 | [7] 0.035 | [2] 0.083 | [5] 0.013 | [8] 0.09 | [9] 0.16

CD99L2 isoform 5 (UniProt Q8TCZ2)
inactive: erlotinib 0.089 | [1] -0.047 | [7] -0.039 | [2] -0.039 | [8] 0.054 | [9] -0.035

CD33 (UniProt P20138)
inactive: erlotinib 0.054 | [1] 0.175 | [7] -0.013 | [5] -0.08 | [8] -0.006 | [9] 0.094

CASP9 (UniProt P55211)
inactive: [3] 0.059 | [1] -0.016 | [4] -0.049 | [5] -0.02 | [6] 0.048 | [8] -0.054 | [9] -0.218

CD9 (UniProt P21926)
inactive: [3] -0.063 | [1] 0.099 | [4] 0.056 | [6] -0.303 | [8] -0.111 | [9] 0.085

Remaining list, next part:

CCNT2 (UniProt O60583)
inactive: [3] 0 | [1] -0.105 | [4] -0.029 | [5] -0.025 | [6] -0.08 | [8] -0.176 | [9] -0.027

CCNL2 (UniProt Q96S94)
inactive: [1] 0.037

CCT6B isoform 3 (UniProt Q92526)
inactive: erlotinib 0.364 | [3] -0.239 | [7] -0.026 | [4] 0.162 | [6] -0.005 | [8] -0.033 | [9] 0.387

CBFA2T2 isoform 4 (UniProt O43439)
inactive: erlotinib -0.111 | [7] -0.065 | [2] 0.048

CDC37 (UniProt K7EL68)
inactive: [3] 0.064 | [1] -0.023 | [4] 0.067 | [2] -0.004 | [5] -0.068 | [6] 0.053

CD46 (UniProt P15529)
inactive: [2] -0.027

CD44 (UniProt P16070)
inactive: [3] -0.002 | [4] -0.122 | [6] 0.086 | [8] 0.057 | [9] -0.05

CCDC167 (UniProt Q9P0B6)
inactive: erlotinib 0.068 | [1] 0.008 | [7] -0.041 | [2] 0.054 | [5] 0.072 | [8] 0.054 | [9] 0.224

CCDC66 (UniProt A2RUB6)
inactive: [1] -0.127

CD276 (UniProt Q5ZPR3)
inactive: [2] -0.001

CCDC186 (UniProt Q7Z3E2)
inactive: erlotinib 0.295 | [7] -0.059 | [2] 0.061

CBARP (UniProt Q8N350)
inactive: [3] -0.153 | [1] -0.019 | [4] -0.045 | [2] 0.046 | [5] 0.052 | [6] -0.039 | [8] -0.161 | [9] 0.164

CCDC57 (UniProt Q2TAC2)
inactive: erlotinib 0.044 | [1] 0.031 | [7] -0.051 | [2] -0.021 | [5] 0.003 | [8] 0.012 | [9] 0.026
